The list shows a part of the results, in another mix than the full data.

Compound in this assay: COC(=O)C#Cc1ccccc1 [methyl 3-phenylpropiolate]
In words: log2 ratio of iodoacetamide-alkyne labeling of the cysteine site, DMSO over compound (competition); higher = stronger covalent engagement of the cysteine by the compound, active = 1 or more. The note with it: 500 µM; treatment time 1 h; system: HEK293T cell lysate. A digest of the protocol: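 For each cysteine, the log2 competition ratio is mean control-channel reporter intensity over mean compound-channel reporter intensity. HEK293T lysate (2 mg/mL) was exposed to vehicle or electrophile (500 µM, 1 h, ambient temperature), labelled with iodoacetamide alkyne (1 h), clicked to sCIP-TMT reagents, digested overnight with trypsin at 37 °C, streptavidin-enriched and analysed by Orbitrap Eclipse LC-MS/MS with FAIMS and FragPipe. Cysteines quantified in only one of three replicates, each with duplicate channels, were excluded.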
As for CDK5RAP2 C249 (UniProt Q96SN8), the “log2 ratio of iodoacetamide-alkyne labeling” value (shortened to “log2 ratio”) is inactive: 0.522.
As to NUDCD1 C7 (UniProt Q96RS6), the “log2 ratio” value is inactive: 0.0748.
With SRPK1 C647 (UniProt Q96SB4) the figure was inactive: 0.367; with NCAPG C966 (UniProt Q9BPX3), inactive: 0.355.
Turning to MIPEP C116 (UniProt Q99797), the “log2 ratio” value is inactive: -0.276.
On to ZFR C974 (UniProt Q96KR1), for which the “log2 ratio” value is inactive: 0.302.
With UniProt Q99590_C346 the figure was inactive: 0.0497; with FUBP3 C148 (UniProt Q96I24), inactive: 0.191; with SCLT1 C38 (UniProt Q96NL6), inactive: -0.0796.
With SMG1 C3401 (UniProt Q96Q15) the figure was inactive: -0.371; with KIF2C C154 (UniProt Q99661), inactive: 0.788; with L3MBTL3 C169 (UniProt Q96JM7), inactive: 0.681.
With NSD1 C1312 (UniProt Q96L73) the figure was inactive: 0.503; with ZFR C899 (UniProt Q96KR1), inactive: 0.434.
On to NSD1 C1689 (UniProt Q96L73), for which the “log2 ratio” value is inactive: 0.216.
The result for PSMB7 C87 (UniProt Q99436) reads inactive: 0.421; that for CCDC138 C28 (UniProt Q96M89), inactive: 0.572.
Regarding NUP88 C561 (UniProt Q99567), the “log2 ratio” value was inactive: 0.386.
The result for RNF5 C30 (UniProt Q99942) reads inactive: 0.0657.
The result for NCAPG C202 (UniProt Q9BPX3) reads inactive: 0.0426.
With PURB C17 (UniProt Q96QR8), the “log2 ratio” value is inactive: 0.596.
As for MYBBP1A C1031 (UniProt Q9BQG0), the “log2 ratio” value is inactive: 0.225.
In the case of FBXL18 C423 (UniProt Q96ME1), the “log2 ratio” value was inactive: 0.278.
Take CDK5RAP2 C683 (UniProt Q96SN8): the “log2 ratio” value is inactive: 0.506.
In the case of SH3GL1 C96 (UniProt Q99961), the “log2 ratio” value is inactive: 0.45.
As for RBM17 C302 (UniProt Q96I25), the “log2 ratio” value was inactive: 0.102.
Consider MYBBP1A C1096 (UniProt Q9BQG0), for which the “log2 ratio” value was inactive: 0.0752.
Turning to RNF2 C72 (UniProt Q99496), the “log2 ratio” value is inactive: 0.325.
With PARK7 C106 (UniProt Q99497), the “log2 ratio” value was inactive: 0.0126.
With HNRNPAB C98 (UniProt Q99729) the figure was inactive: -0.0694; with UniProt Q9BPU6_C22, inactive: -0.0781; with USP47 C856 (UniProt Q96K76), inactive: 0.276.
Take RANBP9 C678 (UniProt Q96S59): the “log2 ratio” value is inactive: 0.124.
With PUS7 C443 (UniProt Q96PZ0) the figure was inactive: 0.147; with RUFY1 C544 (UniProt Q96T51), inactive: 0.0736.
For RNF2 C75 (UniProt Q99496), the “log2 ratio” value is inactive: -0.358.
With POP1 C777 (UniProt Q99575) the figure was inactive: 0.339.

The values are drawn from the supplement of paper PMC11006884.
